In patent US20160333063A1, “SOLUBLE HIGH MOLECULAR WEIGHT (HMW) TAU SPECIES AND APPLICATIONS THEREOF” (THE GENERAL HOSPITAL CORPORATION, priority 2013, published 2016):
For at least one compound, name, drawing or mass did not settle the structure.

Assays:
Assay type in all cases: cell-based, mouse
[1] = system: tau cleaved at Asp421 (TauC3); assay: Western blot of tau cleaved at Asp421 in treated primary cortical neurons; details: TgCM (4 nM Aβ) 24 hrs, inhibitor applied 20 minutes prior
Description: (§1) Treatment of neuronal cultures. Wild-type (from CD1 mice), Tau−/−, Tau+/−, and Tau+/+ cortical neurons were cultured in standard NB/B27 serum-free medium, and, at 14 DIV, the medium was replaced with diluted 1:3 CM from TgCM, corresponding to 4 nM of Aβ, or WtCM (0.16 nM of murine Aβ40) and further incubated for 24 hrs. To induce apoptosis, cultures were treated with staurosporine (Enzo Life Sciences) at a final concentration of 1 μM and were harvested 4 hours after treatment. In zVAD-FMK (Sigma Aldrich) experiments, 20 μM of the inhibitor was applied to cultures 20 minutes prior to exposure to WtCM, TgCM, or STS. To inhibit calcineurin, 1 μM FK506 (Enzo Life Sciences) was applied 20 minutes prior to exposure to WtCM, TgCM or STS. Media was then aspirated and RIPA buffer with phosphatase and protease inhibitors was added to each well. Cells were scraped to prepare lysates for Western blots.
(§2) Western Blot. Protein lysates were boiled in sample buffer consisting of LDS Sample Buffer and reducing Agent, resolved on 4%-12% Bis-Tris polyacrylamide precast gels in a MES-SDS running buffer containing antioxidant. For most analyses, 20 μg/lane were loaded. Gels were transferred onto nitrocellulose membranes (Whatman) in transfer buffer containing 20% methanol. […]

caspase 3 = assay: Western blot of cleaved caspase 3 in treated primary cortical neurons; details: TgCM (4 nM Aβ) 24 hrs, inhibitor applied 20 minutes prior
Description: as §1, §2

BAD = assay: Western blot of phosphorylated BAD in treated primary cortical neurons; details: TgCM treated cultures, inhibitor or Aβ immunodepletion
Description: as §1, §2

caspase 9 = assay: Western blot of cleaved caspase 9 in treated primary cortical neurons; details: TgCM treated cultures, inhibitor or Aβ immunodepletion
Description: as §1, §2

C=CC[C@@H]1/C=C(\C)C[C@H](C)C[C@H](OC)[C@H]2O[C@@](O)(C(=O)C(=O)N3CCCC[C@H]3C(=O)O[C@H](/C(C)=C/[C@@H]3CC[C@@H](O)[C@H](OC)C3)[C@H](C)[C@@H](O)CC1=O)[C@H](C)C[C@@H]2OC [FK506]
reduced: TauC3 levels / tau cleavage in TgCM exposed neurons [1] | caspase 3 activation in TgCM exposed neurons (caspase 3) | TgCM-induced dephosphorylation of BAD (BAD) | Aβ-induced caspase 9 activation (caspase 9)
